The supplement of paper PMC10727501
The other results are listed elsewhere or left out. Repeats in this data set agree poorly, so a single value says little.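 Researchers measured free-swimming zebrafish larvae's O-bend response probability to dark flashes (naive: first five; training: remaining flashes of four 60-flash blocks; test: later 60-flash block) and OMR turning toward alternating leftward/rightward LED motion. Six treated larvae were compared to sixty 0.1% DMSO controls, with |SSMD|≥2 marking a hit.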

Legend:
Conditions in all cases: 10 µM; pre-incubation: 30-90 min
[1] = system: Danio rerio larvae (5 dpf, TLF); assay: OMR-Perf (SSMD vs DMSO vehicle); higher = higher than vehicle (e.g. higher dark-flash O-bend response probability, or better optomotor performance)
[2] = system: Danio rerio larvae (5 dpf, TLF); assay: Prob-Test (SSMD vs DMSO vehicle); higher = higher than vehicle (e.g. higher dark-flash O-bend response probability, or better optomotor performance)
[3] = system: Danio rerio larvae (5 dpf, TLF); assay: Prob-Naive (SSMD vs DMSO vehicle); higher = higher than vehicle (e.g. higher dark-flash O-bend response probability, or better optomotor performance)
[4] = system: Danio rerio larvae (5 dpf, TLF); assay: Prob-Train (SSMD vs DMSO vehicle); higher = higher than vehicle (e.g. higher dark-flash O-bend response probability, or better optomotor performance)

Cl.N#Cc1ccc2[nH]cc(CCCCN3CCN(c4ccc5oc(C(N)=O)cc5c4)CC3)c2c1 [Vilazodone HCl]
OMR-Perf [1]: -0.399
Prob-Test [2]: -1.51
Prob-Naive [3]: -1.6
Prob-Train [4]: -2.9

CC(=O)[C@]1(O)Cc2c(O)c3c(c(O)c2[C@H](O[C@H]2C[C@H](N)[C@H](O)[C@H](C)O2)C1)C(=O)c1ccccc1C3=O.Cl [Idarubicin HCl]
OMR-Perf [1]: 0.0563
Prob-Test [2]: 0.534
Prob-Naive [3]: 0.121
Prob-Train [4]: 0.0486

Cc1ccccc1C(=O)Nc1ccc(C(=O)N2CCCC(O)c3cc(Cl)ccc32)c(C)c1 (configuration not stated) [Tolvaptan]
OMR-Perf [1]: 0.89
Prob-Test [2]: 0.433
Prob-Naive [3]: 0.0551
Prob-Train [4]: 0.366

C[C@]12CC[C@H]3c4ccc(O)cc4CC[C@H]3[C@@H]1C[C@@H](O)[C@H]2O [Estriol]
OMR-Perf [1]: 0.229
Prob-Test [2]: -0.225
Prob-Naive [3]: 0.374
Prob-Train [4]: 0.362

Cl.N=C(N)NC(=O)c1nc(Cl)c(N)nc1N.O.O [Amiloride hydrochloride dihydrate]
OMR-Perf [1]: -0.476
Prob-Test [2]: 0.0723
Prob-Naive [3]: -0.409
Prob-Train [4]: 0.225

CC1CCN(CC[C@H]2CCCN2S(=O)(=O)c2cccc(O)c2)CC1.Cl
OMR-Perf [1]: -0.528
Prob-Test [2]: -1.37
Prob-Naive [3]: 0.389
Prob-Train [4]: -1.31

CC(C)NCC(O)COc1ccc(CCOCC2CC2)cc1.Cl (configuration not stated) [Betaxolol hydrochloride (Betoptic)]
OMR-Perf [1]: 0.842
Prob-Test [2]: 0.528
Prob-Naive [3]: 0.549
Prob-Train [4]: -0.091

N[C@@H]1CCCC[C@H]1N.O=C([O-])C(=O)[O-].[Pt+2] [Oxaliplatin]
OMR-Perf [1]: 0.307
Prob-Test [2]: 0.129
Prob-Naive [3]: -0.0954
Prob-Train [4]: -0.0145

C[N+](C)(C)C[C@H](O)CC(=O)[O-] [L-carnitine]
OMR-Perf [1]: 0.318
Prob-Test [2]: -0.0091
Prob-Naive [3]: 0.516
Prob-Train [4]: -0.0116

Nc1ccn([C@@H]2O[C@H](CO)[C@@H](O)C2(F)F)c(=O)n1 [Gemcitabine]
OMR-Perf [1]: 0.245
Prob-Test [2]: 0.723
Prob-Naive [3]: -0.459
Prob-Train [4]: 0.223

CCCc1cc(C)[nH]c(=O)c1CNC(=O)c1cc(-c2ccc(N3CCN(C(C)C)CC3)nc2)cc2c1cnn2C(C)C
OMR-Perf [1]: -0.821
Prob-Test [2]: 0.136
Prob-Naive [3]: 0.146
Prob-Train [4]: -0.626

COc1cc2nc(N3CCN(C(=O)C4CCCO4)CC3)nc(N)c2cc1OC.Cl.O.O (configuration not stated) [Terazosin HCl]
OMR-Perf [1]: -0.362
Prob-Test [2]: 0.201
Prob-Naive [3]: 0.394
Prob-Train [4]: -0.15

CCOC(=O)n1ccn(C)c1=S [Carbimazole]
OMR-Perf [1]: -0.255
Prob-Test [2]: 0.124
Prob-Naive [3]: 0.585
Prob-Train [4]: 0.206

CCCc1nc2c(C)cc(-c3nc4ccccc4n3C)cc2n1Cc1ccc(-c2ccccc2C(=O)O)cc1 [Telmisartan]
OMR-Perf [1]: -0.816
Prob-Test [2]: 1.81
Prob-Naive [3]: -0.418
Prob-Train [4]: -1.22

C[C@H](O[C@H]1OCCN(Cc2n[nH]c(=O)[nH]2)[C@H]1c1ccc(F)cc1)c1cc(C(F)(F)F)cc(C(F)(F)F)c1 [Aprepitant]
OMR-Perf [1]: 0.512
Prob-Test [2]: -0.175
Prob-Naive [3]: 0.214
Prob-Train [4]: -0.122

Cc1ccc(C(=O)Nc2cccc(C(F)(F)F)c2)cc1Nc1nc(-c2cccnc2)nc2c1cnn2C
OMR-Perf [1]: -0.255
Prob-Test [2]: 0.239
Prob-Naive [3]: -0.589
Prob-Train [4]: -0.419

NC(=O)N1c2ccccc2CC(=O)c2ccccc21 [Oxcarbazepine]
OMR-Perf [1]: 0.207
Prob-Test [2]: -0.0274
Prob-Naive [3]: 0.0551
Prob-Train [4]: -0.264

CCc1cc(Nc2nccc(-c3c(-c4ccc(OC)c(C(=O)Nc5c(F)cccc5F)c4)nc4ccccn34)n2)c(OC)cc1N1CCC(N2CCN(S(C)(=O)=O)CC2)CC1
OMR-Perf [1]: 0.424
Prob-Test [2]: 0.0955
Prob-Naive [3]: 0.35
Prob-Train [4]: 0.169

[C@@H]1(C[C@@]2(N([C@@](C1)(CC2)[H])C)[H])OC(C(C3C=CC=CC=3)O)=O.Br (some centres not stated) [Homatropine Bromide]
OMR-Perf [1]: -0.836
Prob-Test [2]: -0.222
Prob-Naive [3]: -0.302
Prob-Train [4]: -0.329

CCC1=C(C)CN(C(=O)NCCc2ccc(S(=O)(=O)NC(=O)N[C@H]3CC[C@H](C)CC3)cc2)C1=O [Glimepiride]
OMR-Perf [1]: -0.413
Prob-Test [2]: 0.406
Prob-Naive [3]: -0.117
Prob-Train [4]: -0.201

O=C(O)c1cc(=O)c2ccccc2o1 [Chromocarb]
OMR-Perf [1]: -0.047
Prob-Test [2]: -0.358
Prob-Naive [3]: -0.481
Prob-Train [4]: -0.472

CN(C)CC(c1ccc(O)cc1)C1(O)CCCCC1 (configuration not stated) [Desvenlafaxine]
OMR-Perf [1]: 0.713
Prob-Test [2]: 0.608
Prob-Naive [3]: 0.213
Prob-Train [4]: -0.211

C[C@]12CC[C@H]3c4ccc(O)cc4CC[C@H]3[C@@H]1CC[C@H]2O [Estradiol]
OMR-Perf [1]: 0.256
Prob-Test [2]: -0.044
Prob-Naive [3]: 0.121
Prob-Train [4]: -0.848
